The series can be described thus: general procedure: Fmoc solid-phase peptide synthesis. The settings on record: whole synthesis, MALDI-TOF MS.

HELM strings list residues between dots; [ac] is acetyl, [am] amide, other brackets name non-standard units.

With “PEPTIDE1{G.R.K.K.R.R.Q.R.R.R.P.P.Q.P.D.A.L.K.S.R.T.L.R}$$$$V2.0”, the final ms purity is recorded as over 95%.

Source of the values: article PMC4479448 (PLoS ONE, 2015).
